Starred links: 1 amine or outer side, 2 acyl side, 3 side chain; linkers in the order of their positions; H or OH if unused. Non-standard residues stand in square brackets, D forms with d. *: point of attachment. Paclitaxel(2'-OCO-DMEDA) = CC(=O)O[C@H]1C(=O)[C@@]2(C)[C@H]([C@H](OC(=O)c3ccccc3)[C@]3(O)C[C@H](OC(=O)[C@H](OC(=O)N(C)CCN(C)*)[C@@H](NC(=O)c4ccccc4)c4ccccc4)C(C)=C1C3(C)C)[C@]1(OC(C)=O)CO[C@@H]1C[C@@H]2O; Fmoc = O=C(OCC1c2ccccc2-c2ccccc21)*; PABC = O=C(OCc1ccc(N[*:1])cc1)[*:2]
Columns and labels:
[1] = general procedure: Fmoc solid-phase peptide synthesis; Fmoc-Gly-Wang resin (loading: 0.4–0.8 mmol/g); 2-CTC resin for Fmoc-VCit-OH; COMU/DIPEA (Wang resin); HATU/DIPEA (2-CT resin); conditions: for step yield: late stage modification step
[2] = general procedure: Fmoc solid-phase peptide synthesis; Fmoc-Gly-Wang; COMU/DIPEA (Wang resin); HATU/DIPEA (2-CT resin); conditions: whole synthesis

| Substance | step yield [1] | further results |
| --- | --- | --- |
| Fmoc-GFLG-N-4-(hydroxymethyl)-phenyl | 96% yield | – |
| Fmoc-GFLG-N-4-(methyl)-phenyl 4-Nitrophenyl Carbonate | 78% yield | – |
| Fmoc-GFLG-N-4-(methyloxycarbonyl-(N,N′-dimethylethylenediamine))-phenyl | 88% yield | – |
| Fmoc-GFLG-N-4-(methyloxycarbonyl-(N-Boc-N,N′-dimethylethylenediamine))-phenyl | 76% yield | – |
| Fmoc-GFLG-OH | – | crude yield [2]: 80% yield |
| Fmoc-GFLG[PABC]-{Paclitaxel(2'-OCO-DMEDA)} (SMILES CC(=O)O[C@H]1C(=O)[C@@]2(C)[C@H]([C@H](OC(=O)c3ccccc3)[C@]3(O)C[C@H](OC(=O)[C@H](OC(=O)N(C)CCN(C)C(=O)OCc4ccc(NC(=O)CNC(=O)[C@H](CC(C)C)NC(=O)[C@H](Cc5ccccc5)NC(=O)CNC(=O)OCC5c6ccccc6-c6ccccc65)cc4)[C@@H](NC(=O)c4ccccc4)c4ccccc4)C(C)=C1C3(C)C)[C@]1(OC(C)=O)CO[C@@H]1C[C@@H]2O) | – | conjugation yield ([1]; conjugation step): 28% yield; final HPLC purity ([1]; conjugation step, analytical HPLC with diode array UV detector): 96% |
| Fmoc-GPLG-N-4-(hydroxymethyl)-phenyl | 82% yield | – |
| Fmoc-GPLG-N-4-(methyl)-phenyl 4-Nitrophenyl Carbonate | 58% yield | – |
| Fmoc-GPLG-N-4-(methyloxycarbonyl-(N,N′-dimethylethylenediamine))-phenyl | 40% yield | – |
| Fmoc-GPLG-N-4-(methyloxycarbonyl-(N-Boc-N,N′-dimethylethylenediamine))-phenyl | 69% yield | – |
| Fmoc-GPLG-OH | – | crude yield [2]: 49% |
